Publication PMC4450052
Where a chain is given by its changes, count along the chain named. No constants are given. Whether binding was seen depends on the method and setting. In cells and extracts the contact can be indirect. Some entries that bind do so weakly or less than the wild type. Where a sequence is shown, tags or fusion partners need not be part of it. Blank lines part the entries; values can stand above or below the binder they belong to.

Legend:
Assay in all cases: co-IP; HA-tagged protein immunoprecipitated from 1 mg of total yeast extract by an HA-affinity resin (Roche); western blot with anti-GFP, anti-PK and anti-HA antibodies
[1] = molecular target: T1, HA-tagged Tem1-Q79L (S. cerevisiae) (UniProt P38987)
T1 sequence: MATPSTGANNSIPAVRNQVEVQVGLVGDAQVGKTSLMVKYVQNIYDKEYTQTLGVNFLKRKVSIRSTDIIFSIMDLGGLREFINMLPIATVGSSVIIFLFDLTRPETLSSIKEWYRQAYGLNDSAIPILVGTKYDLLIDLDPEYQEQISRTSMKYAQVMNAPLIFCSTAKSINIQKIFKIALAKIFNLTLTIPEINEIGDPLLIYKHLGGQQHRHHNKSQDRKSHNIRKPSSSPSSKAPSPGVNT

[2] = molecular target: T2, HA-tagged Tem1 (S. cerevisiae) (UniProt P38987)
T2 sequence: T1 sequence with L79Q

[3] = molecular target: T3, Bub2-Q132L tagged with three HA epitopes (S. cerevisiae) (UniProt P26448)
T3 sequence: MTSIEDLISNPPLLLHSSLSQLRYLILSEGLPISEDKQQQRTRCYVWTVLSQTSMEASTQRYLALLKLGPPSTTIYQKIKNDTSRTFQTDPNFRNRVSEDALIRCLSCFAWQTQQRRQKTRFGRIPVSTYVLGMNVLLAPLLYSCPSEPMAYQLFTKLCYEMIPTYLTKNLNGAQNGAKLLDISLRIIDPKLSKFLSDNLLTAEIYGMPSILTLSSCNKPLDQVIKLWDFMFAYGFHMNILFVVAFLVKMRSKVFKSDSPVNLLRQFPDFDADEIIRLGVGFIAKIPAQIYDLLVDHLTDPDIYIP

[4] = molecular target: T4, Bub2 tagged with three HA epitopes (S. cerevisiae) (UniProt P26448)
T4 sequence: T3 sequence with L132Q

- binding [2]: binds
- binding [1]: binds
B2: Bub2-GFP (protein, UniProt P26448 1-306)
chain: T3 sequence with L132Q

- binding [3]: binds
B4: GFP-tagged Tem1 (protein, UniProt P38987 1-245)
chain: T1 sequence with L79Q

The remaining lines, values behind:

B1: Bub2 tagged with 3PK epitopes (protein, UniProt P26448 1-306)
chain: T3 sequence with L132Q
- binding [1]: binds

B3: GFP-tagged Bfa1 (protein, UniProt P47113 1-574)
chain: MSIRPLTLNGLDEPETSFEELNTTLPRFQSHETLTLEENVPPLSTSTYIPPPSSVGTSDTGTVFSNSTSAFWSNKQADDDQDMEVDQDDEFLNDFQEFQNKKDDFDDAIKTNFHLRNGCRTGPFKNDIFAEEFDRKLSLEDKPRLKQPRSMMELKPKRKLSNSVTSRNLRSGNSVRFKKSMPNLALVNPAIREEEEDEEREREDQREFNYKIDNDTQDTILAKFSSDDEGDFLTGFEELEGEAIDETISSNDKESADHPRFLKKSSSSLPLKISPAQYDIVKHDELLTPGLHRRQRDWNTQQELDSFKEKRSVRHCSNQNVQLNGPAKIKTIKQQIDHNTPMKKGSMIYNPKTMKWEGNENVLSKFSDVDTANRKALLIKNKLQRDADSKKQKYSDLQHARATSRNQKVIGNMILDEQNLRWVSVSEEEADPFAGIPEINLPPVGKSMKKRSSSPFLRSKSQVNTPFVSNDNDGVYQSTAAQARLRKYHSMRTLNGTTETPEISSTFHLSSRALEKFYHEENRWCKKLASWFIPRDETIISVDEETIMDESTVNSKRKSYMYEIRNMVINSTKD
- binding [2]: binds
- binding [1]: binds
- binding [3]: binds
- binding [4]: binds
